PubChem BioAssay AID1259308 – NCATS | 2017
The deposit covers about 59,000 reagents; this is a random part of them. Over the whole deposit, about 1,510 (2.6%) got an active call. 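Calls use total luciferase alone and ignore viability, so some active siRNAs may act by altering cell number.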 Entries without a mark were called inactive. The numbers tell different reagents against one gene apart. Reagent sequences are not shown.

Purpose: 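Genes whose loss raises luciferase production in HEK293 cells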 (primary screen)
System: human HEK293 embryonic kidney cells stably expressing firefly luciferase (HEK-CMV-Luc2-Hygro)
Reagent: single siRNA against human genes, 0.8 pmol siRNA per well
Time to read-out: 72 h
Detection: 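Reporter luminescence and viable-cell signal on separate replicate plates, given as percent of non-targeting control and median/MAD z-scores, plus per-cell luciferase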
Direction: total luciferase, z-score and total luciferase, % of control: higher = more reporter protein produced; luciferase per cell, z-score: higher = more reporter output per viable cell; viable cells, % of control: higher = more viable cells
Call rule: 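An siRNA counts as active if its total luciferase robust z-score exceeds 3; genes with two or more such siRNAs out of three were retested with fresh siRNAs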
Meaning of the calls: active = raised luciferase; inactive = no rise

| gene | reagent | total luciferase, z-score | total luciferase, % of control | luciferase per cell, z-score | viable cells, % of control |
| --- | --- | --- | --- | --- | --- |
| DDX18 | 1 | -0.956 | 62.9 | -0.422 | 78.5 |
| DDX18 | 2 | 0.3 | 87.8 | -0.221 | 104 |
| DDX18 | 3 | -1.4 | 54.1 | -2.05 | 104 |
| NRG2 | 1 | 1.32 | 108 | 0.512 | 106 |
| NRG2 | 2 | -0.26 | 76.7 | -0.138 | 88.9 |
| NRG2 | 3 | 0.25 | 86.9 | -0.264 | 104 |
| GCNT1 | 1 | 0.158 | 85 | 1.59 | 62.5 |
| GCNT1 | 2 | 2.96 | 141 | 2.61 | 79.1 |
| GCNT1 | 3 | 0.376 | 89.4 | 1.06 | 75.5 |
| CHST2 | 1 | -0.255 | 76.8 | -0.16 | 89.5 |
| CHST2 | 2 | -0.201 | 77.9 | -0.728 | 105 |
| CHST2 | 3 | -0.641 | 69.1 | -0.739 | 93.8 |
| DHX29 | 1 | 0.323 | 88.3 | 0.666 | 82.8 |
| DHX29 | 2 | -0.981 | 62.4 | 0.855 | 55.6 |
| DHX29 | 3 | 1.31 | 108 | 1.18 | 88.5 |
| C6orf118 | 1 | 1.02 | 102 | 0.542 | 99 |
| C6orf118 | 2 | -0.171 | 78.5 | 0.274 | 81.6 |
| C6orf118 | 3 | -0.464 | 72.7 | -0.62 | 95.6 |
| TEKT2 | 1 | 0.31 | 88.1 | 0.37 | 89.3 |
| TEKT2 | 2 | 0.673 | 95.3 | 0.27 | 99.2 |
| TEKT2 | 3 | -0.0633 | 80.6 | -0.331 | 98.3 |

Laid out differently: entries from further up.
gene,reagent,"total luciferase, z-score","total luciferase, % of control","luciferase per cell, z-score","viable cells, % of control"
DDX18,1,-0.956,62.9,-0.422,78.5
DDX18,2,0.3,87.8,-0.221,104
DDX18,3,-1.4,54.1,-2.05,104
NRG2,1,1.32,108,0.512,106
NRG2,2,-0.26,76.7,-0.138,88.9

Next entries follow:
| gene | reagent | total luciferase, z-score | total luciferase, % of control | luciferase per cell, z-score | viable cells, % of control |
| --- | --- | --- | --- | --- | --- |
| GFPT1 | 1 | 1.45 | 111 | 1.02 | 94.7 |
| GFPT1 | 2 | -2.04 | 41.2 | -2 | 78 |
| GFPT1 | 3 | -0.368 | 74.6 | -1.11 | 112 |
| DGKI | 1 | 1.1 | 104 | 1.35 | 81.2 |
| DGKI | 2 | 1.6 | 114 | 1.97 | 75.7 |
| DGKI | 3 | -0.865 | 64.7 | -0.6 | 84.6 |
| TMEM174 | 1 | 5.93 (active) | 200 | 4.86 | 62 |
| TMEM174 | 2 | -0.491 | 72.1 | 0.625 | 68.4 |
| TMEM174 | 3 | -0.463 | 72.7 | 0.0928 | 79.3 |
| TMEM167A | 1 | -1.15 | 59 | -0.877 | 83 |
| TMEM167A | 2 | 3 (active) | 142 | 2.23 | 87.9 |
| TMEM167A | 3 | 0.902 | 99.8 | 0.821 | 89.9 |
| ELF2 | 1 | 0.7 | 95.8 | 1.59 | 70.5 |
| ELF2 | 2 | 0.254 | 86.9 | -0.296 | 105 |
| ELF2 | 3 | -0.513 | 71.7 | -1.17 | 109 |
| EP300 | 1 | 0.276 | 87.4 | 0.783 | 79.4 |
| EP300 | 2 | -0.479 | 72.4 | -0.698 | 97.2 |
| EP300 | 3 | 0.101 | 83.9 | -0.347 | 103 |
